EP4477665A1 (AffyXell Therapeutics Co., Ltd., dated 2024)
These are yes or no findings as the source states them, for the method shown. Some entries that bind do so weakly or less than the wild type.

Key:
[1] = target: T1, human CD40L (hCD40L antigen) (human, UniProt P29965 113-261, limits assumed); assay: competitive ELISA, hCD40L (1 nM) against coated rhCD40 Fc; percent inhibition in FIG. 10
T1 sequence (looked up): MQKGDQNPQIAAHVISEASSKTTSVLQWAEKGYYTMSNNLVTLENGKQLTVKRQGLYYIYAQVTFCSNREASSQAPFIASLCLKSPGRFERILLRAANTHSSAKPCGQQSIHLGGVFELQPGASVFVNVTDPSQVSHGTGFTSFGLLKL

[2] = target: T1, human CD40L (hCD40L antigen); assay: ELISA on coated hCD40L, anti-cystatin detection (legend of FIGs. 12A-12C)
[3] = target: T1, human CD40L (hCD40L antigen); assay: ELISA on coated hCD40L, anti-cystatin detection, without or with 10 uM HSA

Measured: binding

B1: clone-230 XT75 (designed binder)
chain: IPGGLSEAKPATPEIQEIVDKVKPQLEEKTGETYGKLEAVQYKTQVVHYYVHYNDQGTNYYIKVRAGDNKYMHLKVFKSLWGENLFAKWEDLVLTGYQVDKNKDDELTGFAEAAAKEAAAKEAAAKEAAAKEAAAKEAAAKMIPGGLSEAKPATPEIQEIVDKVKPQLEEKTGETYGKLEAVQYKTQVVHYYVHYNDQGTNYYIKVRAGDNKYMHLKVFKSLWGENLFAKWEDLVLTGYQVDKNKDDELTGFAEAAAKEAAAKEAAAKEAAAKEAAAKEAAAKMIPGGLSEAKPATPEIQEIVDKVKPQLEEKTGETYGKLEAVQYKTQVVHYYVHYNDQGTNYYIKVRAGDNKYMHLKVFKSLWGENLFAKWEDLVLTGYQVDKNKDDELTGFAEAAAKEAAAKEAAAKEAAAKEAAAKEAAAKMIPRGLSEAKPATPEIQEIVDKVKPQLEEKTGETYGKLEAVQYKTQVLANFFQRRWPGSTNYYIKVRAGDNKYMHLKVFNGPWKFRNTDRGADRVLTGYQVDKNKDDELTGF
binds: all assays above

B2: clone-230 XT76 (designed binder)
chain: IPGGLSEAKPATPEIQEIVDKVKPQLEEKTGETYGKLEAVQYKTQVVHYYVHYNDQGTNYYIKVRAGDNKYMHLKVFKSLWGENLFAKWEDLVLTGYQVDKNKDDELTGFAEAAAKEAAAKEAAAKEAAAKEAAAKEAAAKMIPGGLSEAKPATPEIQEIVDKVKPQLEEKTGETYGKLEAVQYKTQVVHYYVHYNDQGTNYYIKVRAGDNKYMHLKVFKSLWGENLFAKWEDLVLTGYQVDKNKDDELTGFAEAAAKEAAAKEAAAKEAAAKEAAAKEAAAKMIPGGLSEAKPATPEIQEIVDKVKPQLEEKTGETYGKLEAVQYKTQVVHYYVHYNDQGTNYYIKVRAGDNKYMHLKVFKSLWGENLFAKWEDLVLTGYQVDKNKDDELTGFAEAAAKEAAAKEAAAKEAAAKEAAAKEAAAKMIPGGLSEAKPATPEIQEIVDKVKPQLEEKTGETYGKLEAVQYKTQVVHYYVHYNDQGTNYYIKVRAGDNKYMHLKVFKSLWGENLFAKWEDLVLTGYQVDKNKDDELTGFAEAAAKEAAAKEAAAKEAAAKEAAAKEAAAKMIPRGLSEAKPATPEIQEIVDKVKPQLEEKTGETYGKLEAVQYKTQVLANFFQRRWPGSTNYYIKVRAGDNKYMHLKVFNGPWKFRNTDRGADRVLTGYQVDKNKDDELTGF
binds: all assays above
